Assay results published in publication PMC5705150.
Like-named read-outs stand apart in the source and are kept apart here. No constants are given. Whether binding was seen depends on the method and setting. In cells and extracts the contact can be indirect. Some results given as binding are weak or reduced against the parent protein; the word gives no strength. For some assays here: Where a sequence is shown, tags or fusion partners need not be part of it.

Sequences of proteins named here, by UniProt entry; tags and fusion partners are left off.
UniProt Q8BG40: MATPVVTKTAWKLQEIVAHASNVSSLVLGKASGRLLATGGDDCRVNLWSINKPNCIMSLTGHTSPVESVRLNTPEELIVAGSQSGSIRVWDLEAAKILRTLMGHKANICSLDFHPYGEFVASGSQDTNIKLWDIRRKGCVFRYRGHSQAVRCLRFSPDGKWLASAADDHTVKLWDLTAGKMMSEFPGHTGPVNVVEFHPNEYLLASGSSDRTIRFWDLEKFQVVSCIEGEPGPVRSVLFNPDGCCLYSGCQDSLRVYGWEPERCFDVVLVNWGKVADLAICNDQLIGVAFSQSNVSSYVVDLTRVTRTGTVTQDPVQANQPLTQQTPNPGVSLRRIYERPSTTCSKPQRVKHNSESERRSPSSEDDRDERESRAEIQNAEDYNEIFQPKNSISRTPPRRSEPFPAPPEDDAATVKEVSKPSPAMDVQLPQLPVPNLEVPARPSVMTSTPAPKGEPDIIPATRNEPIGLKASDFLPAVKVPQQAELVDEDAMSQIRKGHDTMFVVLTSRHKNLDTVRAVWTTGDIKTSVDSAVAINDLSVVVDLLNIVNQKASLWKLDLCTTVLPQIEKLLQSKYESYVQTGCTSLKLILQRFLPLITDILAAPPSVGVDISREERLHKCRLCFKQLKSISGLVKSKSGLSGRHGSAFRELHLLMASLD

T1: KATNAL2 (katanin-like 2), endogenous (mouse (endogenous in testis)) (UniProt Q9D3R6)
T1 sequence: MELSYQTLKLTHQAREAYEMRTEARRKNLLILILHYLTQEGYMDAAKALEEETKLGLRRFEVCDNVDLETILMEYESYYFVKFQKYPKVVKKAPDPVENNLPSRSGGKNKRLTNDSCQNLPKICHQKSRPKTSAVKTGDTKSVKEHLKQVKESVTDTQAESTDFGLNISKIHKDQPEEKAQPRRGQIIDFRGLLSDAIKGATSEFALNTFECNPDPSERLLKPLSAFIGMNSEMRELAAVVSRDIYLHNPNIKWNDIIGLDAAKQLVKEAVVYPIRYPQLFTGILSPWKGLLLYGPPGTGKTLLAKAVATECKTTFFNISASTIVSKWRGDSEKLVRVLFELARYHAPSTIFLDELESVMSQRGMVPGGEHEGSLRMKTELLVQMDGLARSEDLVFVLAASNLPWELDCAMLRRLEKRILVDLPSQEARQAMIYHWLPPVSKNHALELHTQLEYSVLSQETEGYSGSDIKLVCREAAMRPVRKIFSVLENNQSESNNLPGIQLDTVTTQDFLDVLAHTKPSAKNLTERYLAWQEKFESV

T2: EGFP-KATNAL2 (katanin-like 2) (mouse) (UniProt Q9D3R6)
T2 sequence: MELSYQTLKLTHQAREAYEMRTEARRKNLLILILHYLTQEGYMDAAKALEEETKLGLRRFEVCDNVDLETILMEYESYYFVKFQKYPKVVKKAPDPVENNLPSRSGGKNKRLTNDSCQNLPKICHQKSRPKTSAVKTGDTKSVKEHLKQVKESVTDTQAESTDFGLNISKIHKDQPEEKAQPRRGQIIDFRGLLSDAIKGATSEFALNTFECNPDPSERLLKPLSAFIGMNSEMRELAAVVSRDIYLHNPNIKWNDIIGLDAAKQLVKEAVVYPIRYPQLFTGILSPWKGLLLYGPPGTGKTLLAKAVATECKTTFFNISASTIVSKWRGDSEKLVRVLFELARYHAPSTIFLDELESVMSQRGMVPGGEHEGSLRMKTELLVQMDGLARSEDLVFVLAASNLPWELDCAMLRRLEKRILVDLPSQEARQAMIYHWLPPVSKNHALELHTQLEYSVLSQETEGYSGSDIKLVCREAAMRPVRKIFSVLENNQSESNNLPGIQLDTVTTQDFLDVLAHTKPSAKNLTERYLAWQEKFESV


Experiments:
[1] = biological target: T1, KATNAL2 (katanin-like 2), endogenous (mouse (endogenous in testis)); assay: proximity ligation; Duolink in situ proximity ligation assay on isolated, fixed and permeabilized mouse elongating spermatids; Katnal2 KO/KO spermatids in parallel as control; probes bind if less than 40 nanometres apart
[2] = biological target: T2, EGFP-KATNAL2 (katanin-like 2) (mouse); assay: co-IP; HEK293T cells co-transfected with pEGFP-Katnal2 (or empty pEGFP-C1) and a pmCherry construct; precipitated with anti-GFP-Trap-A beads; blots with antibodies against GFP and mCherry
[3] = biological target: T2, EGFP-KATNAL2 (katanin-like 2) (mouse); assay: as above; remark: listed apart in the source
[4] = biological target: T1, KATNAL2 (katanin-like 2), endogenous (mouse (endogenous in testis)); assay: co-IP; adult mouse testis lysate; precipitated with an antibody against the N-terminus of KATNAL2 (Pierce Co-Immunoprecipitation Kit); blots for KATNAL2, TUBD1 and TUBE1
[5] = biological target: T1, KATNAL2 (katanin-like 2), endogenous (mouse (endogenous in testis)); assay: proximity ligation; Duolink in situ proximity ligation assay on isolated, fixed and permeabilized mouse elongating spermatids; Katnal2 KO/KO spermatids in parallel as control; probes bind if less than 40 nanometres apart; remark: listed apart in the source

binding [3] | binding [4] | binding [5] | Molecule | further results
 |  |  | KATNB1, endogenous (from UniProt Q8BG40 1-658) | binding [1]: binds
 |  |  | mCherry-KATNB1 (from UniProt Q8BG40 1-658) | binding [2]: binds
binds |  |  | mCherry-TUBE1 (ε-tubulin) (protein, UniProt Q9D6T1 1-475) MTQSVVVQVGQCGNQIGCCFWDLALREHAAVNQKGIYDDAISSFFRNVDTRAVGDGGSISKGRISSLKARAVLIDMEEGVVNEILQGPLRDVFDSKQLITDISGSGNNWAVGHKVFGCLYREQILEKLRKSAEQCDCLQCFFIIHSMGGGTGSGLGTFLLKVLEDEFPEVYRFVTAVYPSSEDDVITSPYNSMLAMKELNEHADCVLPIDNQSLFDIISKIDLVVNSGKLGSAVKPKSLITSNMGAVKKHHKKPFDAMNNIVANLLLSLTSSARFEGSLNMDLNEISMNLVPFPKLHYLVSSLTPLYTLADVNIPPRRLDQMFSDAFSKDHQLIQADPRHSLYLACALIVRGNVQISDLRRNIERLKPALQFVSWNQEGWKTSLCSVPPVGHSHSLLALANNTCVKPTFMELRERFTRLYKKKAHLHHYLQVDGMEESTFTEAVSSLSALIQEYSDLDATKSLPVPDVPRLSVAL | 
 | binds | binds | ε-tubulin (TUBE1), endogenous (protein, UniProt Q9D6T1 1-475) MTQSVVVQVGQCGNQIGCCFWDLALREHAAVNQKGIYDDAISSFFRNVDTRAVGDGGSISKGRISSLKARAVLIDMEEGVVNEILQGPLRDVFDSKQLITDISGSGNNWAVGHKVFGCLYREQILEKLRKSAEQCDCLQCFFIIHSMGGGTGSGLGTFLLKVLEDEFPEVYRFVTAVYPSSEDDVITSPYNSMLAMKELNEHADCVLPIDNQSLFDIISKIDLVVNSGKLGSAVKPKSLITSNMGAVKKHHKKPFDAMNNIVANLLLSLTSSARFEGSLNMDLNEISMNLVPFPKLHYLVSSLTPLYTLADVNIPPRRLDQMFSDAFSKDHQLIQADPRHSLYLACALIVRGNVQISDLRRNIERLKPALQFVSWNQEGWKTSLCSVPPVGHSHSLLALANNTCVKPTFMELRERFTRLYKKKAHLHHYLQVDGMEESTFTEAVSSLSALIQEYSDLDATKSLPVPDVPRLSVAL | 
binds |  |  | mCherry-TUBD1 (δ-tubulin) (protein, UniProt Q9R1K7 1-455) MSIVTVQLGQCGNQIGFEVFDALFRDSHCSQGLCSKRDNEAYQASCRERFFREEENGVPVARAVLVDMEPKVINQTLSKAAQSGRWNYGQHTSFCQKQGSGNNWAYGYSVHGPKHEESIMNLIQTEVEKCDSLSGFFIIMSMAGGTGSGLGAFVTQKLQDQYSSSLKMNQIIWPYGTGEVIVQNYNSILTLSHLYRSSDALLIHENDAVHKICAKRMNIKQISFRDLNQVLAHQLGSVFQPTYSEDSSFHYRRNPLGDLMEHLVPHPEFKMLGVRNIPQMSAASLAYSAFTWAGLLKHLRQMLISSAKMEEGINWQVRPPLTGLPPIGKASAHKEHHFNTSLANLVVLRGREVHSADVEGFKDPALYTSWLEPVDAFSVWKTQRAFDKYEKSAALVSNSQLLVKPLDMIVGKAWNMFSSKAFIHQYTKFGMEEEDFLDSFALLEQVVASYGSLGP | 
 | binds | binds | δ-tubulin (TUBD1), endogenous (protein, UniProt Q9R1K7 1-455) MSIVTVQLGQCGNQIGFEVFDALFRDSHCSQGLCSKRDNEAYQASCRERFFREEENGVPVARAVLVDMEPKVINQTLSKAAQSGRWNYGQHTSFCQKQGSGNNWAYGYSVHGPKHEESIMNLIQTEVEKCDSLSGFFIIMSMAGGTGSGLGAFVTQKLQDQYSSSLKMNQIIWPYGTGEVIVQNYNSILTLSHLYRSSDALLIHENDAVHKICAKRMNIKQISFRDLNQVLAHQLGSVFQPTYSEDSSFHYRRNPLGDLMEHLVPHPEFKMLGVRNIPQMSAASLAYSAFTWAGLLKHLRQMLISSAKMEEGINWQVRPPLTGLPPIGKASAHKEHHFNTSLANLVVLRGREVHSADVEGFKDPALYTSWLEPVDAFSVWKTQRAFDKYEKSAALVSNSQLLVKPLDMIVGKAWNMFSSKAFIHQYTKFGMEEEDFLDSFALLEQVVASYGSLGP | 
